Results reported in publication PMC8197395.
No constants are given. Whether binding was seen depends on the method and setting. Binding seen in cells or lysates may run through a third protein. Here binding means that the protein was enriched with, or labelled near, the bait; the list need not be complete. Sequences can lack the tags named with a protein.

Chains of the proteins cited; added tags and fusions are not shown. Residues count along the entry.
UniProt P29372, residues 18-298: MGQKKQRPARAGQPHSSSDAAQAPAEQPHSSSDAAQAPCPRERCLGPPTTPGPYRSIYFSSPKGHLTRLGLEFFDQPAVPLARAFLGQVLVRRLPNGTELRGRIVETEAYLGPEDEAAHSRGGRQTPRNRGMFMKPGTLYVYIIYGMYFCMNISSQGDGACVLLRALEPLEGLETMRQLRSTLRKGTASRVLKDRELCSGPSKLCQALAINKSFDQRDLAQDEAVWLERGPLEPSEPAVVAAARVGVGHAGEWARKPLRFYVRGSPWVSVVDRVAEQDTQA

Biological target: T1, Zeb1/GFP fusion protein (UniProt P37275)
T1 sequence: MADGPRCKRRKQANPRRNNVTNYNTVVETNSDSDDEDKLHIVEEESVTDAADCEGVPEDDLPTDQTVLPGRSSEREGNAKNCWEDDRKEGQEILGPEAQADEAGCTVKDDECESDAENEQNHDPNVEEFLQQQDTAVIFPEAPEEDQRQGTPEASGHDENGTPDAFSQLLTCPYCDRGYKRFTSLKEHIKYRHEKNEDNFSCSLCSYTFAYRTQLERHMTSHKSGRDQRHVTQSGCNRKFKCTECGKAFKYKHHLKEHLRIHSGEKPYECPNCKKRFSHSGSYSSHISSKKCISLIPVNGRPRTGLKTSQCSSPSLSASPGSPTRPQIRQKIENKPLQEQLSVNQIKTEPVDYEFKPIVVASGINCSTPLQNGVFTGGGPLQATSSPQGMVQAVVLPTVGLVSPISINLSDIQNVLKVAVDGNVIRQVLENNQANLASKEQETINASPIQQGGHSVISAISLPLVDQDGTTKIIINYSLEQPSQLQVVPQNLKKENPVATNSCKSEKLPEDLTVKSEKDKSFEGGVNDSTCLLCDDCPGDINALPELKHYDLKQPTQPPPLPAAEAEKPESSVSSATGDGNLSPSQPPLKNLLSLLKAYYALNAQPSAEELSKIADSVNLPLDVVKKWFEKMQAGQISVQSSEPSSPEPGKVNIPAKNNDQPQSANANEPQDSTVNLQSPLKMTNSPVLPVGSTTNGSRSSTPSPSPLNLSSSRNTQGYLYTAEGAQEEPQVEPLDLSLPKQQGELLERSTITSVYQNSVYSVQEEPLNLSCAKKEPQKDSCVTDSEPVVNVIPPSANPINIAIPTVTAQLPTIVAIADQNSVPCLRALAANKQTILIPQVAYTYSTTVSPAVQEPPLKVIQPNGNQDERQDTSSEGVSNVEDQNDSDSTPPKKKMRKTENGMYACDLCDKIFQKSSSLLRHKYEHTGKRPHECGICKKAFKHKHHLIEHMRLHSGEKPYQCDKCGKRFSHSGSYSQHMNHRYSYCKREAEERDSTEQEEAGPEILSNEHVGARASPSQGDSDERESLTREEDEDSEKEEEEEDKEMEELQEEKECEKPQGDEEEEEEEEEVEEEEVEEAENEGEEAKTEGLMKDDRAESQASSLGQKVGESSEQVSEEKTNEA
Test: affinity purification with mass spectrometry; nuclear extracts of MCF-7/Zeb1 cells at 0, 24 and 72 h after doxycycline; Zeb1/GFP captured with llama nano-antibodies to GFP immobilised on sepharose; four washes with RIPA buffer; SDS-PAGE, in-gel trypsin digestion, LC-MALDI TOF/TOF

binding	Substance
binds	C-terminal-binding protein 2 (from UniProt P56545 1-445)
binds	MPG (from UniProt P29372 18-298)
